Source: PMC8569185 (Frontiers in Pharmacology, 2021)
HELM strings list residues between dots; [ac] is acetyl, [am] amide, other brackets name non-standard units.

Assays:
[1] = Fmoc solid-phase peptide synthesis; Fmoc-L-Ser(t-Bu) TentaGel R resin; settings: whole synthesis, A215
peptide synthesis = settings: whole synthesis, A215

Substance	final HPLC purity [1] [%]	final HPLC purity (peptide synthesis) [%]
PEPTIDE1{Y.G.G.F.M.R.R.V.G.R.P.E.W.L.V.D.S}$$$$V2.0	97	–
PEPTIDE1{Y.G.G.F.M.R.R.V.G.R.P.E.W}$$$$V2.0	–	98
PEPTIDE1{Y.G.G.F.M.R.R.V}$$$$V2.0	–	96
